Measurements as given in article PMC6423285.
These are yes or no findings as the source states them, for the method shown. Binding seen in cells or lysates may run through a third protein. Some results given as binding are weak or reduced against the parent protein; the word gives no strength.

Amino acid sequences for entries named in this document (tags omitted).
UniProt O94874: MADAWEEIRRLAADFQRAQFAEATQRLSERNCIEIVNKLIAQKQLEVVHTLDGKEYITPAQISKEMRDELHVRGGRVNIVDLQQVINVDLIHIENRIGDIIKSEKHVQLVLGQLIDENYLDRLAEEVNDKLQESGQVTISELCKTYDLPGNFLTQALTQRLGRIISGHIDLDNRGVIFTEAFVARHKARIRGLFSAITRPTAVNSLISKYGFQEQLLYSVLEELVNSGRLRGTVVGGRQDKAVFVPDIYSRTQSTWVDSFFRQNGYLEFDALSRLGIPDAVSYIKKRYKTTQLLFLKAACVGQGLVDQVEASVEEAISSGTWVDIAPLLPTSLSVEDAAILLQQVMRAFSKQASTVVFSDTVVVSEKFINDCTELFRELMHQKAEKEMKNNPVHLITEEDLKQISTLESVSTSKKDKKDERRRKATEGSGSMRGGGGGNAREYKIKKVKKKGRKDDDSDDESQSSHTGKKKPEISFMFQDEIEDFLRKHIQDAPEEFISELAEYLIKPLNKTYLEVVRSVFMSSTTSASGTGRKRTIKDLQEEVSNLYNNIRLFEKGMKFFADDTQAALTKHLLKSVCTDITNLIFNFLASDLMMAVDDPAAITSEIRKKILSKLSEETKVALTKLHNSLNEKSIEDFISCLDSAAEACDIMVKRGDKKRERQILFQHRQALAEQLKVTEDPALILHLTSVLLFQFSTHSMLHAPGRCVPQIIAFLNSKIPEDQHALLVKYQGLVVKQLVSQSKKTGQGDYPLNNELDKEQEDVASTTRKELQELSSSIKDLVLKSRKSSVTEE
UniProt O60934: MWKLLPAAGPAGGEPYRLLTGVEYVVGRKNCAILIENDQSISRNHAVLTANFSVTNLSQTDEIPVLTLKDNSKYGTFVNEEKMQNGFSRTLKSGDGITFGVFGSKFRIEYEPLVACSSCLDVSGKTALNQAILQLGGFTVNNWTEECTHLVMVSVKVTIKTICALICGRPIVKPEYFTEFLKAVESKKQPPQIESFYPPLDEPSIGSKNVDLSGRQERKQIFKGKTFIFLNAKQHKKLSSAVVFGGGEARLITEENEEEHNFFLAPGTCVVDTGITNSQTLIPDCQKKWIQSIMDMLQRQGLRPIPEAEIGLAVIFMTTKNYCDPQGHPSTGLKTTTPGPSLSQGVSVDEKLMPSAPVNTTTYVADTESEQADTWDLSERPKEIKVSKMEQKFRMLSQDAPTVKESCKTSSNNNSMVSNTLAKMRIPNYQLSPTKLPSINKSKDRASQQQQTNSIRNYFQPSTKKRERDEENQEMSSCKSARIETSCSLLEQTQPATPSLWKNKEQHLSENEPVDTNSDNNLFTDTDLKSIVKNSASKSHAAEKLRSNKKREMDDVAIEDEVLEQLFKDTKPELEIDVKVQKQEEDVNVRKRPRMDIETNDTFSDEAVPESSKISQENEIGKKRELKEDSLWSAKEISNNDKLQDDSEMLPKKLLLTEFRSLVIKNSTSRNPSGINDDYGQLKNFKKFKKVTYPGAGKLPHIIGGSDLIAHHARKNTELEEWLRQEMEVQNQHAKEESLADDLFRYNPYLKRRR

How the values were obtained:
[1] = molecular target: UFM1 specific ligase 1 (UFL1) (human (endogenous in U2OS and NBST cells)) (UniProt O94874); test: co-IP; NBST cells transfected with Flag-NBS1, with or without 2 Gy IR, 30 min; IP with UFL1 antibody with Benzonase; blots
[2] = molecular target: UFM1 specific ligase 1 (UFL1) (human (endogenous in U2OS and NBST cells)) (UniProt O94874); test: co-IP; U2OS cells (UFL1 Tet-on shRNA, with or without Dox), with or without 2 Gy IR, 30 min; NETN lysate; IP with UFL1 antibody + Benzonase; blots
[3] = molecular target: T1, UFL1 phospho peptide (DDSDDEpSQSSHTG); test: pull-down; pS462 peptide on beads, NBS1 pulled down from cell; only the target purified
T1 sequence (peptide, phosphoserine at S462 (7th residue of the peptide)): DDSDDESQSSHTG

| binding [1] | binding [2] | binding [3] | Substance |
| --- | --- | --- | --- |
| binds | – | – | Flag-NBS1 (from UniProt O60934 1-754) |
| – | binds | binds | NBS1 (from UniProt O60934 1-754) |
